Experimental data as given in patent US20120108797A1.
These are yes or no findings as the source states them, for the method shown. Tags and fused reporters may be left off the sequences shown.

T1: human Ly6e (myc-tagged) on HEK293T cells (human) (UniProt Q16553)
T1 sequence (looked up): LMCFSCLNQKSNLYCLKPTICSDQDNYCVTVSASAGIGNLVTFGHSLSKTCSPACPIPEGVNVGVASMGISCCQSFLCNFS


Biological target: T1, human Ly6e (myc-tagged) on HEK293T cells (human)
Experiment: FACS, HEK293T/Ly6e cells, supernatant 1:2

| Binder | binding |
| --- | --- |
| 4.19.1 (antibody, V domains shown) VH: EVQLVESGGGLIQPGGSLRLSCAASGFSVSSNYMNWVRQAPGKGLEWVSVIYTGGSTYYADSVKGRFTISRDNSKNTLYLQMNSLRAEDTAVYYCARDTYLYGMDVWGQGTTVTVSS VL: EIVMTQSPATLSVSPGESATLSCRTSQSVSSNLAWYQQKPGQTPRLLIYGASARATGVPARFSGSGSGTEFTLTISSLQSEDFAVYYCQQYYNWPLTFGGGTKVEIK | no binding (tested: GeoMean ratio threshold 1.95) |
| 1.4.2 (antibody, V domains shown) VH: EVQLVESGGGLVQPGGSLRLSCAASGFTFSSYDMHWVRQATGKGLEWVSAIGTAGDTYYPGSVKGRFTISRENAKNSLYLQMNSLRAGDTAVYYCAREGDYSNYFTMVRGVTYGMDVWGQGTTVTVSS VL: DIQLTQSPSSLCASVGDRITITCRASQGISKYLAWFQQKPGKAPKSLIYGASSLQSGVPAKFSGSGSGTDFTLTISSLQPEDFATYYCQQYNSYPLTFGGGTKVEIK | no binding (tested: GeoMean ratio threshold 1.95) |
| 1.61.1 (antibody, V domains shown) VH: EVQLVESGGGLVQPGGSLRLSCAASGFTFSSYDMHWVRQATGKGLEWVSAIGTAGDTYYPGSVKGRFTISRENAKNSLYLQMNSLRAGDTAVYYCAREGDYSNYFTRVRGVTYGMDVWGQGTTVTVSS VL: DIQMTQSPSSLSASVGDRVTITCRASQGISKYLAWFQQKPGKAPKSLIYGASSLQSGVPSKFSGSGSGTDFTLTISSLQPEDFATYYCQQYNSYPLTFGGGTKVEIK | no binding (tested: GeoMean ratio threshold 1.95) |
| 4.18.1 (antibody, V domains shown) VH: EVQLVESGGGLIQPGGSLRLSCAASGFTVRNNYMNWVRQAPGKGLEWVSVIYTGGSTYYADSVKGRFTISRDNSRNTLYLQMNSLRAEDTAVYYCAREGAVAGFDYWGQGTLVTVSL VL: EIVMTQFPATLSMSPGERATLSCRASQSVSSSLAWYQQTPGQAPRLLIYGASTRSTGFPARFSGIGSGTEFTLTISSLQSEDFAVYYCQQYGNWPLTFGQGTRLEIK | no binding (tested: GeoMean ratio threshold 1.95) |
| 2.6.1 (antibody, IgG4, V domains shown) VH: EVQLVESGGGLIQPGGSLRLSCAASGFTVITNYMNWVRQAPGKGLEWVSIIYTGGSTSYADSVKGRFTVSRDNSKNTLYLHMNSLRVEDTAVYYCAREIAVAGYYGMDVWGQGTTVTVS VL: DIQMTQSPSSLSASVGDRVTITCRASQGIRNDLGWYQQKPGKAPKRLIYAASSLQSGVPSRFSGSGSGTEFTLTISSLQPEDFATYYCLQHNSYPLTFGGGTRVEIK | no binding (tested: GeoMean ratio threshold 1.95) |
| 3.8.3 (antibody, V domains shown) VH: EVQLVESGGGLVQPGGSLRLSCAASGFTFSSYWMSWVRQAPGKGLEWVANIKQHGSEKYYVDSVKGRFTISRDNAKNSLYLQMNSLRAEDTAVYYCAREEAYYYDNSGYYWYFDLWARGTLVTVSS VL: DIQMTQSPSSVSASIGDRVTITCRASQGISSWLAWYQQKPGKTPKLLIYAASSLQSGVPSRFSGSGSGTDFTLTISSLQPEDFATYYCQQADSFPWTFGQGTKVEIK | no binding (tested: GeoMean ratio threshold 1.95) |
